# Measurements from PubChem BioAssay AID445 (National Center for Advancing Translational Sciences (NCATS), 2006).
# The list shows a part of the results. Shown are side measurements of this screen, not its main read-out; they come without a call. Compounds called inactive in the main read-out are mostly missing here. Words in brackets tell the shape of the fitted curve; partial curves, single points and poor fits give uncertain potencies.
# Assay: IkB Signaling
# Conditions: ABC-DLBCL IkBa-CBG/CBR dual luciferase ratio (green luciferase fused to IkBa over red control in OCI-Ly3 lymphoma cells), 4 h
# Outline: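 In this assay, an IκBα–CBG68 fusion accumulates when IKK-driven degradation is blocked; native CBR normalizes for cell number. OCI-Ly3 cells were treated 4 h with compound and doxycycline, then green and red light read after Chroma-Glo addition.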
# [1] = measured here: control luc red channel unless noted
# [2] = measured here: IkB-luc green channel
# [3] = measured here: control luc red channel
structure (smiles),measurement,setting,value
CCOC(=O)c1cc(-c2ccc(C)cc2)n(CC(=O)Nc2ccccc2F)c1C,AC50,[1],"3.98 µM [rising, partial curve]"
COc1ccc(Br)c2c1-c1nc(NC(=O)c3ccccc3F)sc1C2,AC50,[1],"0.0794 µM [falling, full curve]"
COC(=O)c1ccccc1NC(=O)c1ccc(COc2cc(C)cc(C)c2)o1,AC50,[1],"2.51 µM [rising, partial curve]"
COc1ccc(CCCc2nnc(SCC(=O)Nc3cc(C)ccc3C)o2)cc1,AC50,[1],"12.6 µM [falling, partial curve]"
Cc1nc2ccc(S(=O)(=O)N(CC(=O)Nc3cccc(Cl)c3)Cc3ccccc3)cc2s1,AC50,[1],"20 µM [falling, partial curve]"
Cc1nn(CC(=O)NCc2ccc(N(C)C)cc2)c(=O)c2c(C)n(-c3ccc(Cl)cc3)nc12,AC50,[1],"0.631 µM [falling, partial curve]"
CCCCOc1ccc(CNC(=O)Cc2ccc(NC(=O)N3CCCCc4ccccc43)cc2)cc1,AC50,[1],"25.1 µM [falling, partial curve]"
CCn1c(=O)n(-c2ccc(F)cc2)c(=O)c2sc3ccccc3c21,AC50,[1],"1.58 µM [rising, partial curve]"
CCOC(=O)c1c(Nc2ccc(F)cc2)nnc(-c2ccccc2)c1-c1ccccc1,AC50,[1],"10 µM [falling, partial curve]"
Nc1c(NCCN2CCOCC2)c2ccccc2oc1=O,AC50,[1],"5.01 µM [falling, full curve]"
O=C(OCC(=O)N1CCN(C(=O)c2ccco2)CC1)c1cc(-c2ccccc2)nc2ccccc12,AC50,[1],"12.6 µM [falling, partial curve]"
COC(=O)c1sc2cccc(F)c2c1S(=O)(=O)Nc1ccc(N(C)C)cc1,AC50,[1],"20 µM [falling, single point]"
CCOC(=O)c1nc(S(C)(=O)=O)ncc1Cl,AC50,[2],"31.6 µM [falling, single point]"
same,AC50,[3],"15.8 µM [falling, partial curve]"
CCOc1ccc(NC(=O)CSc2nc3c(oc4ccccc43)c(=O)n2-c2cc(C)cc(C)c2)cc1,AC50,[1],"39.8 µM [falling, single point]"
Cc1ccc(C(=O)Nc2c(-c3ccccc3)nc3ccccn23)cc1,AC50,[1],"7.94 µM [falling, partial curve]"
Cc1nnc(N2CCC(C(=O)Nc3ccc(F)cc3)CC2)c2nn(-c3ccc(Cl)cc3)c(C)c12,AC50,[1],"6.31 µM [falling, partial curve]"
O=C(CNC(=O)c1ccco1)OCc1ccc(C(=O)Oc2ccccc2)cc1,AC50,[2],"25.1 µM [rising, partial curve]"
same,AC50,[3],"31.6 µM [rising, single point]"
CC(C)=CCc1c(O)cc(O)c2c1O[C@H](c1ccccc1)CC2=O,AC50,[1],"0.158 µM [rising, partial curve]"
Cc1cc2nn(-c3ccccc3)nc2cc1NC(=O)COc1ccc(Cl)cc1,AC50,[1],"2 µM [rising, full curve]"
Cc1cc(NC(=O)c2cc(-c3cccc(Cl)c3)on2)nn1Cc1ccc(Cl)cc1,AC50,[1],"12.6 µM [falling, partial curve]"
CCCN(CCC)C(=O)Cn1c(=O)n(-c2ccc(C)c(C)c2)c(=O)c2c3c(sc21)CCCCC3,AC50,[1],"7.94 µM [falling, partial curve]"
Cc1ncc(CO)c2c1Oc1nc(-c3ccc(F)cc3)nc(SCC(=O)N3CCCCC3)c1C2,AC50,[1],"25.1 µM [falling, single point]"
Cc1ccc(CN2C(=O)N(c3ccc(F)cc3)C(=O)C2CC(=O)Nc2ccc(Cl)cc2)cc1 (stereo not drawn),AC50,[1],"15.8 µM [falling, partial curve]"
COC(=O)CN1C(=O)CSc2ccc(S(=O)(=O)Nc3cccc(Br)c3)cc21,AC50,[1],"20 µM [falling, partial curve]"
Cc1ccc(C)c(Cn2c3ccccc3c3cnn(CC(=O)NC4CCC(C)CC4)c(=O)c32)c1 (stereo not drawn),AC50,[1],"6.31 µM [falling, partial curve]"
COc1ccc(-n2nc(C(=O)N3CCCC(C)C3)c3c4ccccc4n(C)c3c2=O)cc1Cl (stereo not drawn),AC50,[1],"31.6 µM [falling, single point]"
COc1cc(OC)c(NC(=O)CCCn2nc(C)c3c(C)n(-c4ccccc4)nc3c2=O)cc1Cl,AC50,[1],"10 µM [falling, partial curve]"
O=C(NC1CC(=O)N(c2ccccc2)C1)c1ccc(S(=O)(=O)N2CCCCC2)cc1 (stereo not drawn),AC50,[1],"1 µM [falling, partial curve, poor fit]"
Cc1nn2c(C)c(C(=O)NCc3ccco3)cnc2c1-c1ccccc1,AC50,[1],"25.1 µM [falling, single point]"
COCCCN1C(=O)c2[nH]nc(-c3ccccc3O)c2C1c1ccc(Cl)cc1 (stereo not drawn),AC50,[1],"12.6 µM [falling, partial curve]"
Cn1c(=O)oc2cc(S(=O)(=O)N3CCCC(C(=O)NCc4ccc(F)cc4)C3)ccc21 (stereo not drawn),AC50,[1],"39.8 µM [falling, single point]"
CC(=O)c1sc(Nc2ccccn2)nc1C,AC50,[1],"31.6 µM [falling, single point] [measured here: IkB-luc green channel]"
Cc1ccc(N2CCN(C(=O)c3cnc(N4CCCCC4)c4ccccc34)CC2)c(C)c1,AC50,[1],"20 µM [falling, partial curve]"
COc1cccc2c1C(=O)c1c(O)c3c(c(O)c1C2=O)C[C@](O)(C(=O)CO)C[C@H]3O[C@@H]1C[C@H](N)[C@H](O)[C@H](C)O1,AC50,[1],"3.98 µM [falling, full curve]"
COc1cccc(Cn2nnc3c(=O)[nH]c(C4CCN(C(=O)c5ccccc5Cl)CC4)nc32)c1,AC50,[1],"39.8 µM [falling, partial curve]"
O=C(NCc1ccccc1Br)c1cnc2sc(N3CCCCCC3)nn2c1=O,AC50,[1],"39.8 µM [falling, single point]"
Cc1ccc(C)c(CN2C(=O)c3ccccc3S(=O)(=O)c3ccc(C(=O)NCCCN4CCCC(C)C4)cc32)c1 (stereo not drawn),AC50,[1],"10 µM [falling, partial curve]"
Cc1ccc(NC(=O)c2noc3c2CCCCC3)cc1C,AC50,[1],"0.398 µM [falling, full curve]"
Cc1sc2nc(C(C)C)nc(SCC(=O)NCc3ccco3)c2c1C,AC50,[1],"7.94 µM [falling, partial curve]"
O=c1[nH]c(=O)n(C2CCCCC2)c(O)c1C1=Nc2ccccc2SC(c2ccccc2)C1 (stereo not drawn),AC50,[1],"15.8 µM [falling, partial curve]"
COc1ccccc1NC(=O)C1=C(C)Nc2nc(SCc3ccccc3Cl)nn2C1c1ccccn1 (stereo not drawn),AC50,[1],"3.16 µM [falling, full curve]"
CN(C)c1ccc(/C=C/c2noc(-c3ccccc3O)n2)cc1,AC50,[1],"0.631 µM [falling, full curve]"
Cc1cccc(OCC(=O)N(Cc2ccc(C(C)(C)C)cc2)Cc2ccco2)c1,AC50,[1],"25.1 µM [falling, partial curve]"
Cc1ccc(C(c2cccc(Br)c2)c2c(C)[nH]c3ccccc23)s1 (stereo not drawn),AC50,[1],"25.1 µM [falling, partial curve]"
COCCCNc1nc(NCc2cccc(Cl)c2)c2cnn(C)c2n1,AC50,[1],"20 µM [falling, partial curve]"
CCc1ccc(-n2nc(C)c3c(C)cc(=O)n(CC(=O)Nc4ccc(C(C)=O)cc4)c32)cc1,AC50,[1],"0.0251 µM [rising, full curve, poor fit]"
COc1cc(OC)c(NC(=O)N2CC3CCCN3c3ccccc32)cc1Cl (stereo not drawn),AC50,[1],"15.8 µM [falling, partial curve]"
CCC1CN(C(=O)N2CCC(C(=O)Nc3ccccc3F)CC2)c2ccccc2O1 (stereo not drawn),AC50,[1],"20 µM [falling, partial curve]"
CC(C)(CC(=O)N1CCN(c2ccc(Cl)cc2)CC1)CC1=NS(=O)(=O)c2ccccc2N1,AC50,[1],"7.94 µM [falling, partial curve]"
CCC(C)Sc1nc2c(c(=O)[nH]c(=O)n2C)n1C (stereo not drawn),AC50,[1],"12.6 µM [rising, partial curve]"
Cc1ccc(CCNC(=O)c2ccc3c(Cl)c4c(nc3c2)CCCC4)cc1,AC50,[1],"6.31 µM [falling, partial curve]"
Cc1ccc(C)c(N2CCN(c3c(CN4CCCC4)c(=O)oc4ccccc34)CC2)c1,AC50,[1],"39.8 µM [falling, single point]"
O=C(Nc1cccc(Cl)c1Cl)c1cc(S(=O)(=O)NCc2ccc3c(c2)OCO3)ccc1F,AC50,[1],"3.16 µM [falling, partial curve, poor fit]"
Cc1cccc2cc(C#N)c(NCCNS(=O)(=O)c3ccc4c(c3)OCCO4)nc12,AC50,[1],"25.1 µM [falling, partial curve]"
CCCCSc1nnc2c(n1)OC(c1ccc(Br)s1)N(C(C)=O)c1ccccc1-2 (stereo not drawn),AC50,[1],"1.58 µM [falling, full curve]"
CSc1ccc(CCNC(=O)Cn2ccc3cc(S(=O)(=O)N4CCCCCC4)ccc32)cc1,AC50,[1],"2 µM [falling, partial curve, poor fit]"
Cc1c(C(=O)Nc2ccc(C(=O)O)cc2)nnn1-c1ccccc1,AC50,[1],"10 µM [falling, partial curve]"
Cc1ccc(CN2CCCN(CC(=O)Nc3ccc(C)cc3C)S2(=O)=O)cc1,AC50,[1],"25.1 µM [falling, single point]"
O=C(Nc1ccc2c(c1)nc1n2CCOC1)c1ccco1,AC50,[1],"5.01 µM [falling, partial curve]"
Cc1ccc(CNc2ccc3c(c2)OCO3)cc1,AC50,[1],"12.6 µM [falling, partial curve]"
COc1ccc(CNC(=O)C2CCCN(S(=O)(=O)c3cccc4nsnc34)C2)cc1 (stereo not drawn),AC50,[1],"12.6 µM [falling, partial curve]"

# Nothing new here: entries from further up.
structure (smiles),measurement,setting,value
CN(C)c1ccc(/C=C/c2noc(-c3ccccc3O)n2)cc1,AC50,[1],"0.631 µM [falling, full curve]"
Cc1cccc(OCC(=O)N(Cc2ccc(C(C)(C)C)cc2)Cc2ccco2)c1,AC50,[1],"25.1 µM [falling, partial curve]"
Cc1ccc(C(c2cccc(Br)c2)c2c(C)[nH]c3ccccc23)s1 (stereo not drawn),AC50,[1],"25.1 µM [falling, partial curve]"
COCCCNc1nc(NCc2cccc(Cl)c2)c2cnn(C)c2n1,AC50,[1],"20 µM [falling, partial curve]"
CCc1ccc(-n2nc(C)c3c(C)cc(=O)n(CC(=O)Nc4ccc(C(C)=O)cc4)c32)cc1,AC50,[1],"0.0251 µM [rising, full curve, poor fit]"
COc1cc(OC)c(NC(=O)N2CC3CCCN3c3ccccc32)cc1Cl (stereo not drawn),AC50,[1],"15.8 µM [falling, partial curve]"
CCC1CN(C(=O)N2CCC(C(=O)Nc3ccccc3F)CC2)c2ccccc2O1 (stereo not drawn),AC50,[1],"20 µM [falling, partial curve]"
CC(C)(CC(=O)N1CCN(c2ccc(Cl)cc2)CC1)CC1=NS(=O)(=O)c2ccccc2N1,AC50,[1],"7.94 µM [falling, partial curve]"
CCC(C)Sc1nc2c(c(=O)[nH]c(=O)n2C)n1C (stereo not drawn),AC50,[1],"12.6 µM [rising, partial curve]"
Cc1ccc(CCNC(=O)c2ccc3c(Cl)c4c(nc3c2)CCCC4)cc1,AC50,[1],"6.31 µM [falling, partial curve]"
Cc1ccc(C)c(N2CCN(c3c(CN4CCCC4)c(=O)oc4ccccc34)CC2)c1,AC50,[1],"39.8 µM [falling, single point]"
O=C(Nc1cccc(Cl)c1Cl)c1cc(S(=O)(=O)NCc2ccc3c(c2)OCO3)ccc1F,AC50,[1],"3.16 µM [falling, partial curve, poor fit]"
Cc1cccc2cc(C#N)c(NCCNS(=O)(=O)c3ccc4c(c3)OCCO4)nc12,AC50,[1],"25.1 µM [falling, partial curve]"
CCCCSc1nnc2c(n1)OC(c1ccc(Br)s1)N(C(C)=O)c1ccccc1-2 (stereo not drawn),AC50,[1],"1.58 µM [falling, full curve]"
CSc1ccc(CCNC(=O)Cn2ccc3cc(S(=O)(=O)N4CCCCCC4)ccc32)cc1,AC50,[1],"2 µM [falling, partial curve, poor fit]"
Cc1c(C(=O)Nc2ccc(C(=O)O)cc2)nnn1-c1ccccc1,AC50,[1],"10 µM [falling, partial curve]"
Cc1ccc(CN2CCCN(CC(=O)Nc3ccc(C)cc3C)S2(=O)=O)cc1,AC50,[1],"25.1 µM [falling, single point]"
O=C(Nc1ccc2c(c1)nc1n2CCOC1)c1ccco1,AC50,[1],"5.01 µM [falling, partial curve]"
